Inconclusive results, whose numbers are uncertain, are shown with a selection of clear calls. Potencies of inconclusive entries are doubtful fits and often do not repeat. Active and inactive are the calls of the source. Calls come from the whole dose curve; as a rule, active = well fitted curve in the direction sought with a large enough effect; inconclusive = small, poorly fitted or top-dose-only effect, or another doubt; inactive = no such curve, though single readings can be large; an effect the other way counts as inactive or inconclusive.
What was measured:
[1] = Quantitative High-Throughput drug screen in 47 multiple myeloma cell lines against the NCATS MIPE library collection: JIM3_ECACC cell viability assay (AID 1918963; note: nearly all actives have a fitted effect of over 35% in size); settings: JIM3 myeloma viability, CellTiter-Glo ATP, 48 h; series mostly up to 45.8 µM
Outline: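 Primary qHTS used for cherry-picking: cells at 500/well, library compounds for 48 h (37C, 5% CO2), luminescent ATP assay.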

[2] = Quantitative High-Throughput drug screen in 47 multiple myeloma cell lines against the NCATS MIPE library collection: JIM1_ECACC cell viability assay (AID 1918964); settings: JIM1 myeloma viability, CellTiter-Glo ATP luminescence, 48 h; viability (% of DMSO): at 45.8 µM (top of the series)
Outline: (§1)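 Luminescent ATP measurement with CellTiter-Glo gives viability, scaled between DMSO-only wells (100%) and media-only wells (0%). Cells, 500 per well, faced library compounds for 48 hours at 37C.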

[3] = Quantitative High-Throughput drug screen in 47 multiple myeloma cell lines against the NCATS MIPE library collection: INA6_PLB cell viability assay (AID 1918965; note: nearly all actives have a fitted effect of over 55% in size); settings: INA6 myeloma viability, CellTiter-Glo ATP luminescence, 48 h; viability (% of control): at 45.8 µM (top of the series)
Outline: (§2)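 We plated 500 myeloma cells per well, pinned in MIPE 4.0 compounds, and incubated for 48 hours at 37C. ATP was then quantified with CellTiter-Glo, with DMSO and media-only wells defining 100% and 0%.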

[4] = Quantitative High-Throughput drug screen in 47 multiple myeloma cell lines against the NCATS MIPE library collection: JJN3_DSMZ cell viability assay (AID 1918966; note: nearly all actives have a fitted effect of over 50% in size); settings: JJN3 myeloma cells viability, CellTiter-Glo ATP, 48 h; series mostly up to 45.8 µM
Outline: as §1

[5] = Quantitative High-Throughput drug screen in 47 multiple myeloma cell lines against the NCATS MIPE library collection: Karpas25_ECACC cell viability assay (AID 1918968; note: nearly all actives have a fitted effect of over 35% in size); settings: Karpas25 myeloma viability, CellTiter-Glo ATP, 48 h; viability (% of control): at 45.8 µM (top of the series)
Outline: as §1

[6] = Quantitative High-Throughput drug screen in 47 multiple myeloma cell lines against the NCATS MIPE library collection: KMS27_JCRB cell viability assay (AID 1918970); settings: KMS27 myeloma cells, CellTiter-Glo ATP viability, 48 h; viability (% of DMSO): at 45.8 µM (top of the series); note: nearly all actives have a fitted effect of over 30% in size
Outline: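 ATP-based viability (CellTiter-Glo luminescence) is measured in cells treated 48 h with approved and investigational drugs at 37 °C. Controls are DMSO-only wells for full viability and media-only wells for none.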

[7] = Quantitative High-Throughput drug screen in 47 multiple myeloma cell lines against the NCATS MIPE library collection: KMS12BM_JCRB cell viability assay (AID 1918971); note: nearly all actives have a fitted effect of over 35% in size
Outline: (§3)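 Steps: seed 500 cells per well; pin-transfer MIPE 4.0 library; incubate 48 h at 37C, 5% CO2, humidified; add CellTiter-Glo, 5 min room temperature; read luminescence.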

[8] = Quantitative High-Throughput drug screen in 47 multiple myeloma cell lines against the NCATS MIPE library collection: KMS12PE_JCRB cell viability assay (AID 1918972); settings: KMS12PE myeloma viability, CellTiter-Glo ATP, 48 h; viability: at 45.8 µM (top of the series); note: nearly all actives have a fitted effect of over 30% in size
Outline: as §2

[9] = Quantitative High-Throughput drug screen in 47 multiple myeloma cell lines against the NCATS MIPE library collection: KMS20_JCRB cell viability assay (AID 1918973); settings: CellTiter-Glo ATP, 48 h; viability (% of DMSO): at 45.8 µM (top of the series); note: nearly all actives have a fitted effect of over 45% in size
Outline: as §1

[10] = Quantitative High-Throughput drug screen in 47 multiple myeloma cell lines against the NCATS MIPE library collection: KMS26_JCRB cell viability assay (AID 1918975); settings: KMS26 myeloma cells viability, CellTiter-Glo ATP, 48 h; viability (% of DMSO): at 45.8 µM (top of the series); note: nearly all actives have a fitted effect of over 45% in size
Outline: as §3

[11] = Quantitative High-Throughput drug screen in 47 multiple myeloma cell lines against the NCATS MIPE library collection: MOLP8_DSMZ cell viability assay (AID 1918977); settings: MOLP8 myeloma viability, CellTiter-Glo ATP luminescence, 48 h; viability (% of control): at 45.8 µM (top of the series); note: nearly all actives have a fitted effect of over 45% in size
Outline: (§4)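 Plated at 500 cells per well, myeloma lines received MIPE 4.0 compounds by pin tool. Following 48 h culture at 37 °C, CellTiter-Glo luminescence gave viability relative to DMSO and media-only controls.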

[12] = Quantitative High-Throughput drug screen in 47 multiple myeloma cell lines against the NCATS MIPE library collection: NCIH929_DSMZ cell viability assay (AID 1918978); note: nearly all actives have a fitted effect of over 35% in size
Outline: as §4

[13] = Quantitative High-Throughput drug screen in 47 multiple myeloma cell lines against the NCATS MIPE library collection: OCIMY1_PLB cell viability assay (AID 1918979); note: nearly all actives have a fitted effect of over 35% in size
Outline: as §4

[14] = Quantitative High-Throughput drug screen in 47 multiple myeloma cell lines against the NCATS MIPE library collection: MM1S_ATCC cell viability assay (AID 1918980); note: nearly all actives have a fitted effect of over 45% in size
Outline: as §4

[15] = Quantitative High-Throughput drug screen in 47 multiple myeloma cell lines against the NCATS MIPE library collection: KMS28PE_JCRB cell viability assay (AID 1918983); note: nearly all actives have a fitted effect of over 35% in size
Outline: as §4

[16] = Quantitative High-Throughput drug screen in 47 multiple myeloma cell lines against the NCATS MIPE library collection: KMS21BM_JCRB cell viability assay (AID 1918974); settings: ATP luminescence, 48 h; viability: at 45.8 µM (top of the series) unless noted
Outline: as §1

[17] = Quantitative High-Throughput drug screen in 47 multiple myeloma cell lines against the NCATS MIPE library collection: MMM1_PLB cell viability assay (AID 1918976); note: nearly all actives have a fitted effect of over 35% in size
Outline: as §4

[18] = Quantitative High-Throughput drug screen in 47 multiple myeloma cell lines against the NCATS MIPE library collection: MM1R_ATCC cell viability assay (AID 1918981); note: nearly all actives have a fitted effect of over 35% in size
Outline: as §4

[19] = Quantitative High-Throughput drug screen in 47 multiple myeloma cell lines against the NCATS MIPE library collection: LP1_DSMZ cell viability assay (AID 1918982); note: nearly all actives have a fitted effect of over 35% in size
Outline: as §4

[20] = Quantitative High-Throughput drug screen in 47 multiple myeloma cell lines against the NCATS MIPE library collection: H1112_PLB cell viability assay (AID 1918967; note: nearly all actives have a fitted effect of over 30% in size); settings: H1112 myeloma cells viability, ATP luminescence, 48 h; viability: at 45.8 µM (top of the series)
Outline: as §1

Measured: Potency
Potency is the fitted concentration of half-maximal effect.

O=C(NC(Cc1cc(=O)[nH]c2ccccc12)C(=O)O)c1ccc(Cl)cc1 (stereo not drawn)
inconclusive: [1] 0.0074 µM [rising, full curve, poor fit] | [2] 0.001 µM | [3] 37.2 µM [cytotoxic, single point] | [5] 33.2 µM [cytotoxic, single point] | [8] 0.0059 µM [rising, full curve, poor fit] | [9] 13.2 µM [cytotoxic, partial curve, poor fit] | [10] 0.372 µM [rising, full curve, poor fit] | [14] 26.4 µM [cytotoxic, single point] | [15] 0.0021 µM [rising, full curve, poor fit]
inactive: [6] | [7] | [11] | [12] | [13]
active: [4] 9.35 µM

O=C(C1CCCCC1)N1CC(=O)N2CCc3ccccc3C2C1 (stereo not drawn)
inactive: [1] | [5] | [6] | [9] | [11] | [13] | [18] | [19] | [15]
inconclusive: [2] 0.372 µM [cytotoxic, full curve, poor fit] | [3] 8.33 µM [rising, full curve, poor fit] | [4] 13.2 µM [cytotoxic, partial curve, poor fit] | [7] 26.4 µM [rising, partial curve, poor fit] | [16] 11.8 µM [cytotoxic, partial curve, poor fit] | [17] 0.0053 µM [rising, full curve] | [12] 20.9 µM [cytotoxic, partial curve, poor fit] | [14] 37.2 µM [cytotoxic, single point]

CN1C(=O)C[C@H](C(=O)N[C@@H](Cc2cnc[nH]2)C(=O)N2CCC[C@@H]2C(N)=O)NC1=O
inactive: [8] | [10] | [19]
inconclusive: [1] 18.7 µM [cytotoxic, partial curve, poor fit] | [2] 1.66 µM [cytotoxic, partial curve, poor fit] | [3] 37.2 µM [cytotoxic, single point] | [4] 3.72 µM [cytotoxic, partial curve, poor fit] | [5] 18.7 µM [cytotoxic, partial curve] | [6] 7.43 µM [cytotoxic, partial curve, poor fit] | [9] 0.833 µM [cytotoxic, full curve, poor fit] | [11] 4.18 µM [cytotoxic, partial curve, poor fit] | [12] 20.9 µM [cytotoxic, partial curve] | [13] 3.72 µM [cytotoxic, partial curve, poor fit] | [14] 20.9 µM [cytotoxic, single point] | [18] 37.2 µM [cytotoxic, single point]

Reprinted from above (2 entries):
O=C(C1CCCCC1)N1CC(=O)N2CCc3ccccc3C2C1 (stereo not drawn)
inactive: [1] | [5] | [6] | [9] | [11] | [13] | [18] | [19] | [15]
inconclusive: [2] 0.372 µM [cytotoxic, full curve, poor fit] | [3] 8.33 µM [rising, full curve, poor fit] | [4] 13.2 µM [cytotoxic, partial curve, poor fit] | [7] 26.4 µM [rising, partial curve, poor fit] | [16] 11.8 µM [cytotoxic, partial curve, poor fit] | [17] 0.0053 µM [rising, full curve] | [12] 20.9 µM [cytotoxic, partial curve, poor fit] | [14] 37.2 µM [cytotoxic, single point]

CN1C(=O)C[C@H](C(=O)N[C@@H](Cc2cnc[nH]2)C(=O)N2CCC[C@@H]2C(N)=O)NC1=O
inactive: [8] | [10] | [19]
inconclusive: [1] 18.7 µM [cytotoxic, partial curve, poor fit] | [2] 1.66 µM [cytotoxic, partial curve, poor fit] | [3] 37.2 µM [cytotoxic, single point] | [4] 3.72 µM [cytotoxic, partial curve, poor fit] | [5] 18.7 µM [cytotoxic, partial curve] | [6] 7.43 µM [cytotoxic, partial curve, poor fit] | [9] 0.833 µM [cytotoxic, full curve, poor fit] | [11] 4.18 µM [cytotoxic, partial curve, poor fit] | [12] 20.9 µM [cytotoxic, partial curve] | [13] 3.72 µM [cytotoxic, partial curve, poor fit] | [14] 20.9 µM [cytotoxic, single point] | [18] 37.2 µM [cytotoxic, single point]

(further entries)

CC(C)C1CCC(C(=O)N[C@H](Cc2ccccc2)C(=O)O)CC1 (stereo partly drawn)
inconclusive: [3] 0.001 µM [cytotoxic] | [4] 14.8 µM [cytotoxic, partial curve, poor fit] | [5] 5.26 µM [cytotoxic, full curve, poor fit] | [7] 20.9 µM [cytotoxic, partial curve, poor fit] | [16] 0.0033 µM [rising, full curve, poor fit] | [17] 3.32 µM [cytotoxic, partial curve, poor fit] | [11] 5.9 µM [cytotoxic, partial curve, poor fit] | [13] 14.8 µM [cytotoxic, partial curve, poor fit] | [15] 20.9 µM [cytotoxic, partial curve, poor fit]
active: [14] 16.6 µM
inactive: [1] | [2] | [6] | [8] | [10] | [18]

OC(c1cc(C(F)(F)F)nc2c(C(F)(F)F)cccc12)C1CCCCN1 (stereo not drawn)
inconclusive: [4] 23.5 µM [cytotoxic, partial curve, poor fit] | [6] 29.6 µM [cytotoxic, single point] | [16] 29.6 µM [cytotoxic, partial curve, poor fit] | [13] 37.2 µM [cytotoxic, single point] | [18] 33.2 µM [cytotoxic, single point]
active: [1] 18.7 µM | [2] 16.6 µM | [3] 23.5 µM | [20] 20.9 µM | [7] 26.4 µM | [19] 18.7 µM | [15] 26.4 µM

CN(C)CCC=C1c2ccccc2COc2ccc(CC(=O)O)cc21
inconclusive: [3] 4.18 µM [rising, partial curve, poor fit] | [4] 23.5 µM [cytotoxic, single point] | [20] 26.4 µM [cytotoxic, single point] | [17] 0.0037 µM [rising, full curve, poor fit] | [11] 5.26 µM [rising, partial curve, poor fit] | [12] 33.2 µM [cytotoxic, single point] | [13] 8.33 µM [rising, single point] | [14] 16.6 µM [cytotoxic, partial curve]
inactive: [1] | [2] | [7] | [8] | [9] | [18]

CN[C@H](CC(C)C)C(=O)N[C@H]1C(=O)N[C@@H](CC(N)=O)C(=O)N[C@@H]2C(=O)N[C@H]3C(=O)N[C@H](C(=O)N[C@H](C(=O)O)c4cc(O)cc(O)c4-c4cc3ccc4O)[C@H](O)c3ccc(c(Cl)c3)Oc3cc2cc(c3O[C@@H]2O[C@H](CO)[C@@H](O)[C@H](O)[C@@H]2O[C@H]2C[C@](C)(N)[C@H](O)[C@H](C)O2)Oc2ccc(cc2Cl)[C@H]1O
inactive: [1] | [4] | [10] | [11] | [18] | [19] | [15]
inconclusive: [2] 33.2 µM [rising, single point] | [3] 1.32 µM [rising, full curve, poor fit] | [5] 0.0026 µM [rising, full curve, poor fit] | [6] 0.001 µM [cytotoxic] | [7] 18.7 µM [rising, partial curve, poor fit] | [9] 20.9 µM [rising, partial curve, poor fit] | [16] 14.8 µM [rising, partial curve, poor fit] | [17] 0.0012 µM [rising, full curve, poor fit] | [14] 0.166 µM [rising, full curve, poor fit]

CC(C)NCC(O)COc1ccc(COCCOC(C)C)cc1 (stereo not drawn)
inactive: [1] | [14] | [19]
active: [17] 7.43 µM
inconclusive: [2] 11.8 µM [cytotoxic, single point] | [3] 0.0009 µM | [4] 1.48 µM [cytotoxic, full curve, poor fit] | [6] 6.62 µM [cytotoxic, partial curve, poor fit] | [7] 2.96 µM [cytotoxic, full curve, poor fit] | [9] 0.0074 µM [rising, full curve, poor fit] | [16] 0.935 µM [rising, full curve, poor fit] | [11] 0.0026 µM [cytotoxic, full curve, poor fit] | [18] 0.0012 µM [cytotoxic, full curve, poor fit] | [15] 0.935 µM [cytotoxic, partial curve, poor fit]

Cn1c2cc(S(C)=O)sc2c2cnn(Cc3cccc(N)c3)c(=O)c21 (stereo not drawn)
inconclusive: [3] 59 µM [cytotoxic, partial curve, poor fit] | [9] 1.48 µM [cytotoxic, full curve, poor fit] | [16] 37.2 µM [rising, partial curve] | [11] 33.2 µM [rising, single point] | [19] 11.8 µM [cytotoxic, partial curve, poor fit]
inactive: [1] | [2] | [4] | [5] | [7] | [10] | [13] | [14]
active: [17] 3.32 µM

Source: PubChem BioAssay (NCATS)
